# In publication PMC12022042:
# By UniProt entry, the sequences of proteins in these tests, tags left out.
# UniProt Q96A61: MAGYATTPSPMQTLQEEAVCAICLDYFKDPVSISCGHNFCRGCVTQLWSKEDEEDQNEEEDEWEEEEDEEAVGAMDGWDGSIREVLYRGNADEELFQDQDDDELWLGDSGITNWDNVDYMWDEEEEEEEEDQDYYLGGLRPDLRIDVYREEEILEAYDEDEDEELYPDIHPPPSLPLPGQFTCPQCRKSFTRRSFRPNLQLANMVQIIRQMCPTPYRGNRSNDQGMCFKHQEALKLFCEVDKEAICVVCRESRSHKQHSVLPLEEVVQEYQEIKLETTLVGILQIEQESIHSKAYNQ
# UniProt Q7Z6Z7: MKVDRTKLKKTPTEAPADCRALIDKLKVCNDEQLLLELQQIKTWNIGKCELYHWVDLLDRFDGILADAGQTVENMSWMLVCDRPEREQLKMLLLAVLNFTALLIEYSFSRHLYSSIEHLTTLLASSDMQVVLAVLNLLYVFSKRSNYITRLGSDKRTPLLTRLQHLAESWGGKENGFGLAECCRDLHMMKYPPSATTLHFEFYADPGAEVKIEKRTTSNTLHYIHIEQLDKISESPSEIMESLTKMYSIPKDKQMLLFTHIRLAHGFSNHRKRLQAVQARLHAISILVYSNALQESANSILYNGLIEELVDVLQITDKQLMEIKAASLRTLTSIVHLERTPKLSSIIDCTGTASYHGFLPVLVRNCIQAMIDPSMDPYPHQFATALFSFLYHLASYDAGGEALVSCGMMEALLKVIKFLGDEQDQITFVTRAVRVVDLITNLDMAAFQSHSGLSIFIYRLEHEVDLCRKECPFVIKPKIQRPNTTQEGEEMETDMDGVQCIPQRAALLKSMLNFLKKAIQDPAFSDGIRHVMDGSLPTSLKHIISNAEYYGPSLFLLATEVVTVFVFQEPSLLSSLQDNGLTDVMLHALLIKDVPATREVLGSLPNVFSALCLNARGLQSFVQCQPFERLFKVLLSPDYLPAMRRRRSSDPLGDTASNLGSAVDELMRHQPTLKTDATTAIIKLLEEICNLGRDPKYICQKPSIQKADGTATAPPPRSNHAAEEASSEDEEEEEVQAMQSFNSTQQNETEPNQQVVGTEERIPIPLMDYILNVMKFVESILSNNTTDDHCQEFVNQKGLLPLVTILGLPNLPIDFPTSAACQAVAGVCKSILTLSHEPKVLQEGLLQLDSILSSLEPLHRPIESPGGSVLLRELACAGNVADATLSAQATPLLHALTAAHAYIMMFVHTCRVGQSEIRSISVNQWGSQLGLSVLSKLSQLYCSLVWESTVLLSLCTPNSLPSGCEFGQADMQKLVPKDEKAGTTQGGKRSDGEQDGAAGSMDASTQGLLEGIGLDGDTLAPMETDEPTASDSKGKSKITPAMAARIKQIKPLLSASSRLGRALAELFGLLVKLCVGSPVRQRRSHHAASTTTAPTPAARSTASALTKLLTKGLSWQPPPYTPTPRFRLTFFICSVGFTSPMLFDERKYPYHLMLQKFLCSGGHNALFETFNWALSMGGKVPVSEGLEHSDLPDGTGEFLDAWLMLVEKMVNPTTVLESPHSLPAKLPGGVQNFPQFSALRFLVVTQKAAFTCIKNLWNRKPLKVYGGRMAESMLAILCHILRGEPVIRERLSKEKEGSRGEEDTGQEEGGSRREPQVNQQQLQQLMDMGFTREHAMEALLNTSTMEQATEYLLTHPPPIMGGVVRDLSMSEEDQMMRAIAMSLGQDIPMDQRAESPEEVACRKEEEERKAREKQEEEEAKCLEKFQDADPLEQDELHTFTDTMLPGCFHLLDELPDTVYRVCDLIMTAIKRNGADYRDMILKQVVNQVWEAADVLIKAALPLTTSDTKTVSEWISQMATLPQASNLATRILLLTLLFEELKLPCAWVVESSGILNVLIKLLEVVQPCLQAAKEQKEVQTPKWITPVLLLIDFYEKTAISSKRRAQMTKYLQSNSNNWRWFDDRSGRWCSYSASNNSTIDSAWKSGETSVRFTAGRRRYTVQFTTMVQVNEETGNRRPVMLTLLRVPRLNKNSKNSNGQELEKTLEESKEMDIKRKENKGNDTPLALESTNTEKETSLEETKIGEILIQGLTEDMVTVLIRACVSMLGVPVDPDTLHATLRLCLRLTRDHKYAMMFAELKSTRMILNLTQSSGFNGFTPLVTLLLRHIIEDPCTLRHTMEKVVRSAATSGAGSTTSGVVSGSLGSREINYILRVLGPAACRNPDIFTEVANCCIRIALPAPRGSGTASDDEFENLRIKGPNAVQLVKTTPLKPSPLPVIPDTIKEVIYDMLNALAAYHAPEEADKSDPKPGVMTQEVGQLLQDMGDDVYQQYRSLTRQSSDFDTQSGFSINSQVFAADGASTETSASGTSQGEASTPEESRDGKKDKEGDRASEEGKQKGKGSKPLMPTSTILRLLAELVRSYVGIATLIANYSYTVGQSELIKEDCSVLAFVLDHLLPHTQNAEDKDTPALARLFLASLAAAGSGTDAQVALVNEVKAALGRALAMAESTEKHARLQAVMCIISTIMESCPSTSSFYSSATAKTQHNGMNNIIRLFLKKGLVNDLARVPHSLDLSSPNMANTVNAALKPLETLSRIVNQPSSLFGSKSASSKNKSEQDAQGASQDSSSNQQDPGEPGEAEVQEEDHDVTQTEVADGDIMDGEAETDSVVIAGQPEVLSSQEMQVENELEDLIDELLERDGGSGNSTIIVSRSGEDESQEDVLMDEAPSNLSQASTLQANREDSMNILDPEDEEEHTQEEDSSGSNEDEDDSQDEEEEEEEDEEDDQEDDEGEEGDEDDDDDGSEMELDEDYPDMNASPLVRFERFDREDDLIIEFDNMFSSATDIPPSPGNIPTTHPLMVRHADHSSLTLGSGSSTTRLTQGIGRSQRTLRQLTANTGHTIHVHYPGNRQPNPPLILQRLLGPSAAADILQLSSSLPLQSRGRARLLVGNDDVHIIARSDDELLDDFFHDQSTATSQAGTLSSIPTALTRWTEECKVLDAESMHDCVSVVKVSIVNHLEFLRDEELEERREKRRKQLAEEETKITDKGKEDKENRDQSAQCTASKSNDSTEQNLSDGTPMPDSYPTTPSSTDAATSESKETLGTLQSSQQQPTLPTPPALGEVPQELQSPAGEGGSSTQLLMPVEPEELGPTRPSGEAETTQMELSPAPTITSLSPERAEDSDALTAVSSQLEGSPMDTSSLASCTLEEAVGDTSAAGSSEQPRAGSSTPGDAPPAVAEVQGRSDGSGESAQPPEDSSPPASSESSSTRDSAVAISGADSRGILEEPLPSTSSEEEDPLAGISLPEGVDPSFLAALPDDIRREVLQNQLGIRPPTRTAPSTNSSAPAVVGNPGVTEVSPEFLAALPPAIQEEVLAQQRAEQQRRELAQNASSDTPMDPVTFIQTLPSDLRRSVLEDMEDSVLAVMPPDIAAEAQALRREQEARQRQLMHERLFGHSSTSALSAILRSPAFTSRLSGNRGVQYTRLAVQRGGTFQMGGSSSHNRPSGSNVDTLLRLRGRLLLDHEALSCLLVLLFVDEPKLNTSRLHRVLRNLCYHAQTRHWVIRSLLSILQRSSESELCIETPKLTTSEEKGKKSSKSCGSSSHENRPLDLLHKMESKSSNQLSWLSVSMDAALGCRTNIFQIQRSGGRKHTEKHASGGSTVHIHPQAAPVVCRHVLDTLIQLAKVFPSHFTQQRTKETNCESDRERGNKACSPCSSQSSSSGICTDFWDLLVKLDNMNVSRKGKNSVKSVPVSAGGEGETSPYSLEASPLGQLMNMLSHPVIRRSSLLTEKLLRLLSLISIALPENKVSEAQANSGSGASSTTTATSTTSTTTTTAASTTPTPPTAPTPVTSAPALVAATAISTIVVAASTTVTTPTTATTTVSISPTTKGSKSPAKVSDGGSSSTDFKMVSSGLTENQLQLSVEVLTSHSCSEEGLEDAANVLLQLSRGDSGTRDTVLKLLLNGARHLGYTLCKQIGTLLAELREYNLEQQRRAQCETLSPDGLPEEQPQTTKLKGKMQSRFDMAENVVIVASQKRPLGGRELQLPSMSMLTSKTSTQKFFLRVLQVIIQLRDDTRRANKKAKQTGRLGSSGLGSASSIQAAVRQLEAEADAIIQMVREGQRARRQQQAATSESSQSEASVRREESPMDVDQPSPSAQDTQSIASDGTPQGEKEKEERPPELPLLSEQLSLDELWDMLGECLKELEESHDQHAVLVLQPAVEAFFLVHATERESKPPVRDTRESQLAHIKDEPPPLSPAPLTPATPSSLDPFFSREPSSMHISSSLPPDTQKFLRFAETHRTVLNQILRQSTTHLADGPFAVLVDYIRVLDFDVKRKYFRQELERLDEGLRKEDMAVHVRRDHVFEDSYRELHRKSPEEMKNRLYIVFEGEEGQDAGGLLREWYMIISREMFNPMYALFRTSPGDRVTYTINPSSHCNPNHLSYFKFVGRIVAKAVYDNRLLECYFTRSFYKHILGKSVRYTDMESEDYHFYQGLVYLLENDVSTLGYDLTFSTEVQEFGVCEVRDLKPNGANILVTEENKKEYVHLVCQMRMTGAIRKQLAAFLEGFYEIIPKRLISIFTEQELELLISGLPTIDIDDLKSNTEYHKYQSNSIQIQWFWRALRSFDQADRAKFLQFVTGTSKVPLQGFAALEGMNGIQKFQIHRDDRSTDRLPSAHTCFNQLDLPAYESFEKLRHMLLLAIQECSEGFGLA
# These are yes or no findings as the source states them, for the method shown. For part of these data: Binding seen in cells or lysates may run through a third protein. Some entries that bind do so weakly or less than the wild type.
# Assays:
# [1] = target: TwinStrep-tagged EGFP-TRIM52 (human) (UniProt Q96A61); experiment: co-IP; 1 µg purified EGFP-TRIM52 and 1 µg purified HUWE1 incubated in 25 mM HEPES pH 7.5, 150 mM KCl, 4 mM MgCl2, 0.5 mM TCEP at 4 °C; captured on GFP-Trap magnetic beads; WB; both purified
# [2] = target: 3xHA-tagged TRIM52 (human) (UniProt Q96A61); experiment: co-IP; HEK-293T cells expressing 3xHA-tagged TRIM52 or ΔLoop2, treated with epoxomicin for 5 h; Frackelton lysis buffer (50 mM NaCl, 1% Triton X-100); anti-HA antibody and Protein A/G magnetic beads, 4 °C; WB for endogenous E3 ligases
binding [1],binding [2],Substance
binds,,purified human HUWE1 (from UniProt Q7Z6Z7 1-4374) (enzyme)
,binds,BIRC6 (endogenous) (from UniProt Q9NR09 1-4857) (enzyme)
,binds,HUWE1 (endogenous) (from UniProt Q7Z6Z7 1-4374) (enzyme)
